Assay results published in PubChem BioAssay AID504467 (National Center for Advancing Translational Sciences (NCATS), 2011).
Among all 330,000 compounds or so, about 7,700 (2.3%) were called active. This list was built around the results that the source calls inconclusive (neither active nor inactive); the mix of calls is not that of the screen. Calls follow the shape of the dose curve; as a rule, active = well fitted inhibition curve with a large enough effect; inconclusive = small, poorly fitted or top-dose-only effect, or effect the other way; inactive = flat fitted curve, though single readings scatter. Potencies of inconclusive entries are doubtful fits and often do not repeat.
% is scaled to controls: 0 for no effect and ±100 for the full control effect; potency is read from the fitted curve at half-maximal effect.

Experiment: qHTS screen for small molecules that inhibit ELG1-dependent DNA repair in human embryonic kidney (HEK293T) cells expressing luciferase-tagged ELG1; also: nearly all actives have a fitted effect of over 55% in size
Settings: HEK293T ELG1-luciferase reporter, luminescence, 16 h, DNA damage induced by 5-fluorouridine; activity change, negative = inhibition: at 46.1 µM (top of the series)
Procedure, shortened: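 5-Fluorouridine DNA damage + compound/DMSO, 2,000 cells/well, 16 h, 37 °C/5% CO2. ONE-Glo, 30 min RT, luminescence. Readout = decrease in reporter signal.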
For COc1ccc(CC(=O)NNS(=O)(=O)c2ccccc2[N+](=O)[O-])cc1OC, the “activity change, negative = inhibition” value was inactive: -3.23%. For COc1ccc(CCNC(=O)C(=O)Nc2ccc3c(c2)OCCO3)cc1OC, the Potency was inconclusive: 23.1 µM [activator, single point]. With Cc1nn(-c2ccccc2)c(Cl)c1CN(C(=O)CCl)c1ccc(Cl)cc1 the Potency was inconclusive: 25.9 µM [inhibitor, single point]. In the case of Cc1[nH]c2ccccc2c1C(c1ccccn1)N1CCC(C(N)=O)CC1 (stereo not drawn), the Potency is reported as inconclusive: 2.06 µM [inhibitor, partial curve, poor fit]. In the case of Cc1ccc(C)c(NC(=S)NCCN(C2CCCCC2)C2CCCC2)c1, the Potency is reported as inconclusive: 4.61 µM [inhibitor, single point]. In the case of COc1ccc(C(=O)N/N=C/c2cccc3cccnc23)cc1, the “activity change, negative = inhibition” value is reported as inactive: -11.7%. With COCCc1nc2ccc(C(=O)N(C)Cc3cccc(-n4cccn4)c3)cc2o1 the Potency was inconclusive: 11.6 µM [activator, partial curve]. With Cc1ccc(C2CC(c3ccc(NS(C)(=O)=O)cc3)=NN2C(=O)c2ccco2)cc1 (stereo not drawn) the Potency was inconclusive: 32.6 µM [inhibitor, single point]. For CC1CCCC(C)N1C(=O)COC(=O)c1cncc(Br)c1 (stereo not drawn), the “activity change, negative = inhibition” value was inactive: -0.381%. For CCc1cc2cccc(C)c2nc1SCC(=O)Nc1nonc1C, the Potency was inconclusive: 13 µM [activator, partial curve]. For Cn1c(=O)oc2cc(S(=O)(=O)CCC(=O)N3CCN(c4ccccc4)CC3)ccc21, the “activity change, negative = inhibition” value was inactive: 6.81%. For CCOc1cc(N2CCOCC2)c(OCC)cc1NC(=O)c1ccc(C)cc1, the Potency was inconclusive: 25.9 µM [inhibitor, single point]. In the case of COCCCn1c(SCc2cccc(C(F)(F)F)c2)nc2cc(OC)c(OC)cc2c1=N, the Potency is reported as inconclusive: 35.5 µM [inhibitor, single point]. With CCN(CC)CCN1C(=O)c2ccccc2NC1c1ccc(N(C)C)cc1 (stereo not drawn) the Potency was inconclusive: 6.51 µM [activator, full curve]. In the case of Cc1n[nH]c(C)c1CCC(=O)N/N=C/c1cccc([N+](=O)[O-])c1, the Potency is reported as inconclusive: 23.1 µM [inhibitor, partial curve, poor fit]. With O=C(c1ccc2c(c1)OCO2)C1CCCN(Cc2cn[nH]c2-c2cccc(F)c2)C1 (stereo not drawn) the Potency was inconclusive: 20.6 µM [inhibitor, partial curve, poor fit]. In the case of CC(C)CC1Nc2ncnc(N3CCOCC3)c2N(Cc2ccc(Br)cc2)C1=O (stereo not drawn), the “activity change, negative = inhibition” value is reported as inactive: 1.62%. With C=C(C)C(=O)N1CC2(CC(c3cccc(NC(=O)COc4ccc(Cl)cc4)c3)=NO2)C[C@@H]1C(N)=O (stereo partly drawn) the “activity change, negative = inhibition” value was inactive: -25.9%.
